The target in assay [1] is T1, YFPn-RBE (Arabidopsis thaliana) (UniProt Q9LHS9).
T1 sequence: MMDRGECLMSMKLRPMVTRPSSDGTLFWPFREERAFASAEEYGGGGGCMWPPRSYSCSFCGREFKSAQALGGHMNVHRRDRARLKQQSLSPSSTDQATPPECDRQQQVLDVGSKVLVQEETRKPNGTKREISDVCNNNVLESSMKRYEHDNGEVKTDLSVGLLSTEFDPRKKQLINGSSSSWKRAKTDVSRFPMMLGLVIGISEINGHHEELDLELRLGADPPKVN
Briefly: split reporter; BiFC with YFPn and YFPc fusions (pEarleyGate202-YN, pEarleyGate201-YC) co-infiltrated by Agrobacterium into N. benthamiana leaves with P19; confocal imaging 48h after infiltration.

Assay [2] addresses T2, RABBIT EARS (RBE), yeast two-hybrid fusion (Arabidopsis thaliana) (UniProt Q9LHS9).
T2 sequence: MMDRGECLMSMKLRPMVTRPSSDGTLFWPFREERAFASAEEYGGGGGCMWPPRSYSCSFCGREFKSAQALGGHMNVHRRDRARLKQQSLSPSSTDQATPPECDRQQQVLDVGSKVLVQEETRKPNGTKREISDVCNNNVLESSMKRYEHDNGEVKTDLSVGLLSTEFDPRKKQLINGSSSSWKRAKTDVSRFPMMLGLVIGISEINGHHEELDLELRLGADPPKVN
Nature of the assay: two-hybrid; Gal4 system, pGADT7 (prey) and pGBKT7-GW (bait) co-transformed into Y2H Gold yeast; DDO (SD-Leu-Trp) to select, QDO to analyze interactions; repeated three times.

The target of assay [3] is T3, YFP-RBE (Arabidopsis thaliana) (UniProt Q9LHS9).
T3 sequence: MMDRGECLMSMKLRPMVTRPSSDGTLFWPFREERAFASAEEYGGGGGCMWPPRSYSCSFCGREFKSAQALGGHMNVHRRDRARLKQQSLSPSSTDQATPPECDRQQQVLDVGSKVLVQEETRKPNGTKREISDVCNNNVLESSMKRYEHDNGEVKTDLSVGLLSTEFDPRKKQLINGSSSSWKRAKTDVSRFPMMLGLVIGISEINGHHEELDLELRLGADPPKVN
Nature of the assay: co-IP; YFP-RBE and Myc-TPL co-infiltrated with P19 into N. benthamiana leaves; extract incubated with GFP-trap agarose beads overnight at 4°C; blots with anti-Myc and anti-GFP.

These results are taken from paper PMC10942257.

No constants are given. Whether binding was seen depends on the method and setting. For some of these results: In cells and extracts the contact can be indirect. Some entries that bind do so weakly or less than the wild type. Sequences can lack the tags named with a protein.

B1: TFL2/LHP1, BiFC construct (protein, UniProt Q946J8 1-445)
chain: MKGASGAVKKKPQVLNEAGEAETAVETVGESRKISGDGGFGSDDGGGGGGGGSGESILREIGDDRPTEDGDEEEEEDEDEDDGGDEEDEEGEGEGGQEERPKLDEGFYEIEAIRRKRVRKGKVQYLIKWRGWPETANTWEPLENLQSIADVIDAFEGSLKPGKPGRKRKRKYAGPHSQMKKKQRLTSTSHDATEKSDSSTSLNNSSLPDIPDPLDLSGSSLLNRDVEAKNAYVSNQVEANSGSVGMARQVRLIDNEKEYDPTLNELRGPVNNSNGAGCSQGGGIGSEGDNVRPNGLLKVYPKELDKNSRFIGAKRRKSGSVKRFKQDGSTSNNHTAPTDQNLTPDLTTLDSFGRIARMGNEYPGVMENCNLSQKTKIEELDITKILKPMSFTASVSDNVQEVLVTFLALRSDGKEALVDNRFLKAHNPHLLIEFYEQHLKYNRTP
Consider B1, for which the binding entry in assay [1] was “binds”.

B2: TFL2/LHP1, yeast two-hybrid fusion (protein, UniProt Q946J8 1-445)
chain: MKGASGAVKKKPQVLNEAGEAETAVETVGESRKISGDGGFGSDDGGGGGGGGSGESILREIGDDRPTEDGDEEEEEDEDEDDGGDEEDEEGEGEGGQEERPKLDEGFYEIEAIRRKRVRKGKVQYLIKWRGWPETANTWEPLENLQSIADVIDAFEGSLKPGKPGRKRKRKYAGPHSQMKKKQRLTSTSHDATEKSDSSTSLNNSSLPDIPDPLDLSGSSLLNRDVEAKNAYVSNQVEANSGSVGMARQVRLIDNEKEYDPTLNELRGPVNNSNGAGCSQGGGIGSEGDNVRPNGLLKVYPKELDKNSRFIGAKRRKSGSVKRFKQDGSTSNNHTAPTDQNLTPDLTTLDSFGRIARMGNEYPGVMENCNLSQKTKIEELDITKILKPMSFTASVSDNVQEVLVTFLALRSDGKEALVDNRFLKAHNPHLLIEFYEQHLKYNRTP
For the molecule B2, in assay [2], the binding result is reported as “binds”.

B3: TOPLESS (TPL), yeast two-hybrid fusion (protein, UniProt Q94AI7 1-1131)
chain: MSSLSRELVFLILQFLDEEKFKETVHKLEQESGFFFNMKYFEDEVHNGNWDEVEKYLSGFTKVDDNRYSMKIFFEIRKQKYLEALDKHDRPKAVDILVKDLKVFSTFNEELFKEITQLLTLENFRENEQLSKYGDTKSARAIMLVELKKLIEANPLFRDKLQFPTLRNSRLRTLINQSLNWQHQLCKNPRPNPDIKTLFVDHSCGPPNGARAPSPVNNPLLGGIPKAGGFPPLGAHGPFQPTASPVPTPLAGWMSSPSSVPHPAVSAGAIALGGPSIPAALKHPRTPPTNASLDYPSADSEHVSKRTRPMGISDEVNLGVNMLPMSFSGQAHGHSPAFKAPDDLPKTVARTLSQGSSPMSMDFHPIKQTLLLVGTNVGDIGLWEVGSRERLVQKTFKVWDLSKCSMPLQAALVKEPVVSVNRVIWSPDGSLFGVAYSRHIVQLYSYHGGEDMRQHLEIDAHVGGVNDISFSTPNKQLCVITCGDDKTIKVWDAATGVKRHTFEGHEAPVYSVCPHYKENIQFIFSTALDGKIKAWLYDNMGSRVDYDAPGRWCTTMAYSADGTRLFSCGTSKDGESFIVEWNESEGAVKRTYQGFHKRSLGVVQFDTTKNRYLAAGDDFSIKFWDMDAVQLLTAIDGDGGLQASPRIRFNKEGSLLAVSGNENVIKIMANSDGLRLLHTFENISSESSKPAINSIAAAAAAAATSAGHADRSANVVSIQGMNGDSRNMVDVKPVITEESNDKSKIWKLTEVSEPSQCRSLRLPENLRVAKISRLIFTNSGNAILALASNAIHLLWKWQRNERNATGKATASLPPQQWQPASGILMTNDVAETNPEEAVPCFALSKNDSYVMSASGGKISLFNMMTFKTMATFMPPPPAATFLAFHPQDNNIIAIGMDDSTIQIYNVRVDEVKSKLKGHSKRITGLAFSNVLNVLVSSGADAQLCVWNTDGWEKQRSKVLPLPQGRPNSAPSDTRVQFHQDQAHFLVVHETQLAIYETTKLECMKQWAVRESLAPITHATFSCDSQLVYASFMDATVCVFSSANLRLRCRVNPSAYLPASLSNSNVHPLVIAAHPQEPNMFAVGLSDGGVHIFEPLESEGKWGVAPPAENGSASGAPTAPSVGASASDQPQR
For B3, the binding entry in assay [2] is “binds”.

B4: Myc-TPL (protein, UniProt Q94AI7 1-1131)
chain: MSSLSRELVFLILQFLDEEKFKETVHKLEQESGFFFNMKYFEDEVHNGNWDEVEKYLSGFTKVDDNRYSMKIFFEIRKQKYLEALDKHDRPKAVDILVKDLKVFSTFNEELFKEITQLLTLENFRENEQLSKYGDTKSARAIMLVELKKLIEANPLFRDKLQFPTLRNSRLRTLINQSLNWQHQLCKNPRPNPDIKTLFVDHSCGPPNGARAPSPVNNPLLGGIPKAGGFPPLGAHGPFQPTASPVPTPLAGWMSSPSSVPHPAVSAGAIALGGPSIPAALKHPRTPPTNASLDYPSADSEHVSKRTRPMGISDEVNLGVNMLPMSFSGQAHGHSPAFKAPDDLPKTVARTLSQGSSPMSMDFHPIKQTLLLVGTNVGDIGLWEVGSRERLVQKTFKVWDLSKCSMPLQAALVKEPVVSVNRVIWSPDGSLFGVAYSRHIVQLYSYHGGEDMRQHLEIDAHVGGVNDISFSTPNKQLCVITCGDDKTIKVWDAATGVKRHTFEGHEAPVYSVCPHYKENIQFIFSTALDGKIKAWLYDNMGSRVDYDAPGRWCTTMAYSADGTRLFSCGTSKDGESFIVEWNESEGAVKRTYQGFHKRSLGVVQFDTTKNRYLAAGDDFSIKFWDMDAVQLLTAIDGDGGLQASPRIRFNKEGSLLAVSGNENVIKIMANSDGLRLLHTFENISSESSKPAINSIAAAAAAAATSAGHADRSANVVSIQGMNGDSRNMVDVKPVITEESNDKSKIWKLTEVSEPSQCRSLRLPENLRVAKISRLIFTNSGNAILALASNAIHLLWKWQRNERNATGKATASLPPQQWQPASGILMTNDVAETNPEEAVPCFALSKNDSYVMSASGGKISLFNMMTFKTMATFMPPPPAATFLAFHPQDNNIIAIGMDDSTIQIYNVRVDEVKSKLKGHSKRITGLAFSNVLNVLVSSGADAQLCVWNTDGWEKQRSKVLPLPQGRPNSAPSDTRVQFHQDQAHFLVVHETQLAIYETTKLECMKQWAVRESLAPITHATFSCDSQLVYASFMDATVCVFSSANLRLRCRVNPSAYLPASLSNSNVHPLVIAAHPQEPNMFAVGLSDGGVHIFEPLESEGKWGVAPPAENGSASGAPTAPSVGASASDQPQR
With B4, in assay [3], the binding entry is “binds”.

B5: YFPc-TPL (protein, UniProt Q94AI7 1-1131)
chain: MSSLSRELVFLILQFLDEEKFKETVHKLEQESGFFFNMKYFEDEVHNGNWDEVEKYLSGFTKVDDNRYSMKIFFEIRKQKYLEALDKHDRPKAVDILVKDLKVFSTFNEELFKEITQLLTLENFRENEQLSKYGDTKSARAIMLVELKKLIEANPLFRDKLQFPTLRNSRLRTLINQSLNWQHQLCKNPRPNPDIKTLFVDHSCGPPNGARAPSPVNNPLLGGIPKAGGFPPLGAHGPFQPTASPVPTPLAGWMSSPSSVPHPAVSAGAIALGGPSIPAALKHPRTPPTNASLDYPSADSEHVSKRTRPMGISDEVNLGVNMLPMSFSGQAHGHSPAFKAPDDLPKTVARTLSQGSSPMSMDFHPIKQTLLLVGTNVGDIGLWEVGSRERLVQKTFKVWDLSKCSMPLQAALVKEPVVSVNRVIWSPDGSLFGVAYSRHIVQLYSYHGGEDMRQHLEIDAHVGGVNDISFSTPNKQLCVITCGDDKTIKVWDAATGVKRHTFEGHEAPVYSVCPHYKENIQFIFSTALDGKIKAWLYDNMGSRVDYDAPGRWCTTMAYSADGTRLFSCGTSKDGESFIVEWNESEGAVKRTYQGFHKRSLGVVQFDTTKNRYLAAGDDFSIKFWDMDAVQLLTAIDGDGGLQASPRIRFNKEGSLLAVSGNENVIKIMANSDGLRLLHTFENISSESSKPAINSIAAAAAAAATSAGHADRSANVVSIQGMNGDSRNMVDVKPVITEESNDKSKIWKLTEVSEPSQCRSLRLPENLRVAKISRLIFTNSGNAILALASNAIHLLWKWQRNERNATGKATASLPPQQWQPASGILMTNDVAETNPEEAVPCFALSKNDSYVMSASGGKISLFNMMTFKTMATFMPPPPAATFLAFHPQDNNIIAIGMDDSTIQIYNVRVDEVKSKLKGHSKRITGLAFSNVLNVLVSSGADAQLCVWNTDGWEKQRSKVLPLPQGRPNSAPSDTRVQFHQDQAHFLVVHETQLAIYETTKLECMKQWAVRESLAPITHATFSCDSQLVYASFMDATVCVFSSANLRLRCRVNPSAYLPASLSNSNVHPLVIAAHPQEPNMFAVGLSDGGVHIFEPLESEGKWGVAPPAENGSASGAPTAPSVGASASDQPQR
For B5, the binding entry in assay [1] is “binds”.

B6: YFPc-HDA19 (enzyme, UniProt O22446 1-501)
chain: MDTGGNSLASGPDGVKRKVCYFYDPEVGNYYYGQGHPMKPHRIRMTHALLAHYGLLQHMQVLKPFPARDRDLCRFHADDYVSFLRSITPETQQDQIRQLKRFNVGEDCPVFDGLYSFCQTYAGGSVGGSVKLNHGLCDIAINWAGGLHHAKKCEASGFCYVNDIVLAILELLKQHERVLYVDIDIHHGDGVEEAFYATDRVMTVSFHKFGDYFPGTGHIQDIGYGSGKYYSLNVPLDDGIDDESYHLLFKPIMGKVMEIFRPGAVVLQCGADSLSGDRLGCFNLSIKGHAECVKFMRSFNVPLLLLGGGGYTIRNVARCWCYETGVALGVEVEDKMPEHEYYEYFGPDYTLHVAPSNMENKNSRQMLEEIRNDLLHNLSKLQHAPSVPFQERPPDTETPEVDEDQEDGDKRWDPDSDMDVDDDRKPIPSRVKREAVEPDTKDKDGLKGIMERGKGCEVEVDESGSTKVTGVNPVGVEEASVKMEEEGTNKGGAEQAFPPKT
For the molecule B6, the binding entry in assay [1] is reported as “binds”.

B7: Lysine-Specific Demethylase 1 (LSD1)-like histone demethylase LDL1, BiFC construct (enzyme, UniProt Q8VXV7 1-844)
chain: MSTETKETRPETKPEDLGTHTTVDVPGEEPLGELIADDVNEVVSDASATETDFSLSPSQSEQNIEEDGQNSLDDQSPLTELQPLPLPPPLPVEARISESLGEEESSDLVTEQQSQNPNAAEPGPRARKRRRRKRFFTEINANPAFSRNRRTSVGKEVDSEALIAMSVGFPVYSLTEEEIEANVVSIIGGKDQANYIVVRNHIIALWRSNVSNWLTRDHALESIRAEHKTLVDTAYNFLLEHGYINFGLAPVIKEAKLRSFDGVEPPNVVVVGAGLAGLVAARQLLSMGFRVLVLEGRDRPGGRVKTRKMKGGDGVEAMADVGGSVLTGINGNPLGVLARQLGLPLHKVRDICPLYLPNGELADASVDSKIEASFNKLLDRVCKLRQSMIEENKSVDVPLGEALETFRLVYGVAEDQQERMLLDWHLANLEYANATLLGNLSMAYWDQDDPYEMGGDHCFIPGGNEIFVHALAENLPIFYGSTVESIRYGSNGVLVYTGNKEFHCDMALCTVPLGVLKKGSIEFYPELPHKKKEAIQRLGFGLLNKVAMLFPCNFWGEEIDTFGRLTEDPSTRGEFFLFYSYSSVSGGPLLVALVAGDAAERFETLSPTDSVKRVLQILRGIYHPKGIVVPDPVQALCSRWGQDKFSYGSYSYVAVGSSGDDYDILAESVGDGRVFFAGEATNRQYPATMHGAFLSGMREAANILRVARRRASSSALNPNQICIDKEEEVDEEEDRCLDQLFETPDLTFGNFSVLFTPNSDEPESMSLLRVRIQMEKPESGLWLYGLVTRKQAIELGEMDGDELRNEYLREKLGLVPVERKSLSQEGESMISSLKAARLNRQIFD
As to B7, the binding entry in assay [1] was “binds”.
